## Library screening results

Sequences of proteins named here, by UniProt entry; tags and fusion partners are left off.
UniProt E9BF75, entry or part of it: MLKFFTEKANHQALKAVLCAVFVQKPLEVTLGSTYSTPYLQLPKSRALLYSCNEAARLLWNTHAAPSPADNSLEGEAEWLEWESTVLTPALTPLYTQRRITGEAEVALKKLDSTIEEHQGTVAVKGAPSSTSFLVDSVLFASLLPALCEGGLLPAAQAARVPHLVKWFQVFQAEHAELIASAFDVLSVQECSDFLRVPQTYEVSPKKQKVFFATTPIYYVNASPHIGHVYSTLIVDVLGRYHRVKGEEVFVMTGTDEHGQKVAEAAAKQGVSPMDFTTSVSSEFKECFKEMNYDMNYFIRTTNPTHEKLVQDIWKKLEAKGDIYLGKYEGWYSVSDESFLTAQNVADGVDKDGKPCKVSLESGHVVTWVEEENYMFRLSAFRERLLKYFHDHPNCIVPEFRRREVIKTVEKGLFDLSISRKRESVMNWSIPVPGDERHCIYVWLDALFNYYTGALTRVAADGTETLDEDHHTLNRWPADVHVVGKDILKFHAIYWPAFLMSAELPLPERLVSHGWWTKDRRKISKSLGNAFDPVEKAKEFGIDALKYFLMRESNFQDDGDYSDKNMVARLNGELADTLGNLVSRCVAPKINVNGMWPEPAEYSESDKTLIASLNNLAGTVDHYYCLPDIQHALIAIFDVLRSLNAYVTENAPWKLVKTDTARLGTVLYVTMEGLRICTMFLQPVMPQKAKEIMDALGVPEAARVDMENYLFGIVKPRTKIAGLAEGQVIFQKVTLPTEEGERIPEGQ

Data taken from ChEMBL document CHEMBL3988442, “University of Dundee, Small-Polar-MMV Screening Library” (2021).

Results are percentages, as filed.
The controls that fix the scale are not given in the record; negative values are as filed.
The compounds are a random part of those screened.

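Primary screen of methionyl-tRNA synthetase; the read-out is not stated. Target: Methionyl-tRNA synthetase (putative), Leishmania donovani (UniProt E9BF75). The test concentration is not given. The values are filed as inhibition. Of about 68,000 compounds tested this way, about 24 (0.035%) reached 50% or more in at least one test.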

| # | Compound | inhibition |
|---|---|---|
| 1 | `CNC(=O)C1CN(c2ncccn2)CCN1Cc1ccccc1` (stereo not given) | 10.48% |
| 2 | `Cc1cc(CNc2nccc(N)n2)c2[nH]c(C)c(C)c2c1` | 9.207% |
| 3 | `O=C(CN1CCOC(Cn2cccn2)C1)NCc1cccs1` (stereo not given) | 6.667% |
| 4 | `CC1CN(CC(=O)NC(=O)NCc2ccccc2)CCO1` (stereo not given) | 9.155% |
| 5 | `Cn1nccc1C(=O)N1CCC(c2nnsc2S(C)(=O)=O)CC1` | 17.08% |
| 6 | `CCOCCN1CCN(Cc2nnc(C3CC3)o2)CC1C` (stereo not given) | 9.239% |
| 7 | `CCc1cc(NCc2ccccc2CN2CCCC2)n2ncnc2n1` | 5.634% |
| 8 | `NC(=O)CSCC(=O)NC1(c2cccc(Cl)c2)CC1` | 18.08% |
| 9 | `COCCN(Cc1sccc1C)C(=O)C1CCN(C(C)C)CC1` | 17.87% |
| 10 | `CC[C@H]1CN(C(=O)c2cccnc2)CC[C@H]1CC(=O)NC1CC1` | 12.64% |
| 11 | `Cn1cc(CN2CCn3cc(CNC(=O)c4cccn4C)nc3C2)cn1` | 14.29% |
| 12 | `COCCCNC(=O)Nc1cccc2c1CCN(S(C)(=O)=O)C2` | 8.488% |
| 13 | `CCc1noc(CC)c1CNC(=O)Nc1ccc2[nH]nnc2c1` | 17.96% |
| 14 | `COc1cc(CN2C[C@@H]3CNC(=O)[C@H](C)[C@@H]3C2)cc(OC)c1` | 18.91% |
| 15 | `O=C1c2cnc(N3CCOCC3)nc2CN1c1ccc2c(c1)OCO2` | 16.54% |
| 16 | `CC(C)CN(CCc1ccccc1)Cc1nc2c(cnn2C)c(=O)[nH]1` | 22.22% |
| 17 | `Cc1cc(NCC2CCN(c3ccccc3)C2)n2ncnc2n1` (stereo not given) | 10.51% |
| 18 | `CCc1nccn1CC(=O)N1C[C@H]2CC[C@@H]1CN(S(=O)(=O)N(C)C)C2` | 13.71% |
| 19 | `CCC(=O)c1ccc(Br)cc1NN1c2cc(Br)ccc2C(=O)C1(C)OC` (stereo not given) | 18.7% |
| 20 | `CC(C)c1nn(C)c(N(C)C)c1CNC(C)c1ccccc1F` (stereo not given) | 4.274% |
| 21 | `CCOCCNCc1cc(O)c2cc(C)ccc2n1` | 15.5% |
| 22 | `CN(C)c1nc(N)nc(CSCCC(=O)Nc2ccc(F)cc2)n1` | 11.39% |
| 23 | `COc1ccc(OC)c(C(O)CN2CCN(C3CCCC3)CC2)c1` (stereo not given) | 4.337% |
| 24 | `CCN(CC)C1(Cc2cc(-c3cccc(O)c3)on2)COC1` | 8.271% |
| 25 | `CN(CC(C)(C)C)c1ccc(C(=O)NCCCc2ccccn2)cn1` | 7.949% |
| 26 | `Cc1cnn(CC2CCCCN2C(=O)c2cc(Cl)c[nH]2)c1` (stereo not given) | 16.38% |
| 27 | `COCC(Nc1ncnc2c1CCNCC2)c1ccccn1` (stereo not given) | 18.68% |
| 28 | `COc1cccc(C(=O)N2CCCCC2CNC(N)=O)c1` (stereo not given) | 11.02% |
| 29 | `CS(=O)(=O)c1ccc(CNC(=O)N2CCC(CO)CC2)cc1` | 17.75% |
| 30 | `Cc1cc(CN2CCc3nn(C(C)C)c(=O)cc3C2)no1` | 13.33% |
| 31 | `CN(C)c1nc2n(c(=O)n1)CCN2C(=O)Nc1ccccc1` | 7.666% |
| 32 | `COc1ccc(CCNC(=O)C2CCC(Cn3cnnn3)CC2)cc1` (stereo not given) | 12.86% |
| 33 | `CN(C)C(=O)N1Cc2ccccc2C2(CCN(C3CCOCC3)CC2)C1` | 10% |
| 34 | `CN1[C@@H](c2ccccc2)[C@@H](C(=O)NCc2ccccn2)C[C@@]1(C)C(=O)O` | 8.541% |
| 35 | `CCNC(=O)N(CCCO)C1CCCc2ccccc21` (stereo not given) | 10.61% |
| 36 | `COc1ccc(C)cc1NC(=O)Nc1cnc(N2CCOCC2)nc1` | 14.65% |
| 37 | `CCn1nc(C)c2ncnc(NCC(=O)N3CCOCC3)c21` | 16.18% |
| 38 | `O=C1COC2(CCN(Cc3nccs3)CC2)CN1c1ccccc1` | 19.02% |
| 39 | `O=S(=O)(Cc1ccc(F)c(Cl)c1)NCCOc1cccnc1` | 18.48% |
| 40 | `N#Cc1cccnc1NCCC1CCN(CC(F)(F)F)CC1` | 13.61% |
| 41 | `CC(C)(C)CCN1CCCC(Cn2cc(CCO)nn2)C1` (stereo not given) | 12.64% |
| 42 | `CN1C[C@@H]2CC[C@H](C1)N(Cc1ccccc1OCCN1CCOCC1)C2` | 26.28% |
| 43 | `Cc1nc(CN2CCOCC3(CCN(c4ccccn4)C3)C2)cs1` (stereo not given) | 2.994% |
| 44 | `COCC(=O)NCC[C@H]1CC(C)(C)Oc2ccccc21` | 8.01% |
| 45 | `NC(=O)CN1CCCN(C(=O)Cc2ccc3c(c2)OCO3)CC1` | 16.08% |
| 46 | `COc1ncccc1CN1C[C@H]2CCN(c3ncccn3)C[C@H]2C1` | 7.143% |
| 47 | `CN(C)c1nccnc1C1CCN(c2cnccn2)CC1` | 14.33% |
| 48 | `O=C(Cc1cccnc1)N1CCC2(CC1)CCN(C1CCOCC1)CC2` | 7.527% |
| 49 | `Cc1ccc(CN2CC[C@@H]3[C@@H](CO[C@H]3CN(C)C)C2)o1` | 9.524% |
| 50 | `Cc1ccc(C(C(=O)NCc2cc(C)[nH]n2)N(C)C)cc1` (stereo not given) | 12.3% |
| 51 | `CSCc1cc(F)ccc1CNC(=O)N1CCC[C@@H]1CO` | 3.971% |
| 52 | `C[C@H](N)Cn1nc(-c2cccs2)oc1=O` | 11.65% |
| 53 | `COC(=O)c1ccoc1COC(=O)CCc1ccc(OC)c(OC)c1` | 7.042% |

Some entries from above, unchanged:

{"compound": "CCNC(=O)N(CCCO)C1CCCc2ccccc21", "stereo": "stereo not given", "inhibition": 10.61}
{"compound": "CC1CN(CC(=O)NC(=O)NCc2ccccc2)CCO1", "stereo": "stereo not given", "inhibition": 9.155}
{"compound": "COC(=O)c1ccoc1COC(=O)CCc1ccc(OC)c(OC)c1", "inhibition": 7.042}
{"compound": "COc1cc(CN2C[C@@H]3CNC(=O)[C@H](C)[C@@H]3C2)cc(OC)c1", "inhibition": 18.91}